Assay results taken from paper PMC9771724.
Results are given in words; binding and its absence hold for the method and conditions named. Some entries that bind do so weakly or less than the wild type.

By UniProt entry, the sequences of proteins in these tests, tags left out.
UniProt Q9UJU2: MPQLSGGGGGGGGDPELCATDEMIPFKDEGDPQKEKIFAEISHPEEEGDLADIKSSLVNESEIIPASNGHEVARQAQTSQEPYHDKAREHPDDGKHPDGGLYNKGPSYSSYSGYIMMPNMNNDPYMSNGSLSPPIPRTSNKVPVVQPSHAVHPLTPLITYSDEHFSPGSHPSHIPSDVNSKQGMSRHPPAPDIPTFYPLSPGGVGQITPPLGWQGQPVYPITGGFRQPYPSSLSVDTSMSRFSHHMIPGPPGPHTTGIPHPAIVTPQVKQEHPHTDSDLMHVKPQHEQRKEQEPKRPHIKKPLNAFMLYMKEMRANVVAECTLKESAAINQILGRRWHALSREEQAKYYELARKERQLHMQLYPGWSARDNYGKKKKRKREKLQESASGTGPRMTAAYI
UniProt P36402: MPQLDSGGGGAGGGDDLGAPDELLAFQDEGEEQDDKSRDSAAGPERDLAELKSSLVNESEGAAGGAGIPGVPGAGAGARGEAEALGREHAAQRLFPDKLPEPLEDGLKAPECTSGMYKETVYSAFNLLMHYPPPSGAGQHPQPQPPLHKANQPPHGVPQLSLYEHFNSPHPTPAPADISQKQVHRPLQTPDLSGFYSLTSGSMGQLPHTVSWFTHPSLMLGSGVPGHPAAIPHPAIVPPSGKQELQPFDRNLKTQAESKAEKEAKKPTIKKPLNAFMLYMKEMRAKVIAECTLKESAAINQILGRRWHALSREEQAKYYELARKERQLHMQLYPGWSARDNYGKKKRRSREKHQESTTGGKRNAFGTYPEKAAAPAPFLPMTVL
UniProt P48436: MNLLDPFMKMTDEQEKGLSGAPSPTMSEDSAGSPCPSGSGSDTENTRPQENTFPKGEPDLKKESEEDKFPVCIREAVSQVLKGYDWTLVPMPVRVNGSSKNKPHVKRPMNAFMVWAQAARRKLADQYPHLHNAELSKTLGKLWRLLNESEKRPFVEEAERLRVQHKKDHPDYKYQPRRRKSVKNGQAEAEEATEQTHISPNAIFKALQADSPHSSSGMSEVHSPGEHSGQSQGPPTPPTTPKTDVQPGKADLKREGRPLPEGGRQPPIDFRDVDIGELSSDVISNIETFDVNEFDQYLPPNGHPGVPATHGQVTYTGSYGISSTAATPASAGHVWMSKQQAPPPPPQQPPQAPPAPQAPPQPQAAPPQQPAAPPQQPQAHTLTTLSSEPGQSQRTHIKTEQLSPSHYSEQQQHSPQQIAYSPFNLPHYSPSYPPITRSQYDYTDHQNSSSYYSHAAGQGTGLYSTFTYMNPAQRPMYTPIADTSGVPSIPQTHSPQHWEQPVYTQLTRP

Columns and labels:
GST-tagged LEF1 = GST-tagged LEF1 (UniProt Q9UJU2); test: pull-down; GST-tagged proteins as bait on glutathione-sepharose, His-tagged proteins as prey; 0.25 to 2 ug of each protein; 25 mM Hepes pH 7.5, 12.5 mM MgCl2, 300 mM KCl, 0.1% NP-40, 1 mg/ml BSA, 1 mM DTT; 4 °C; washes with 400 mM KCl, 0.5% NP-40; Western blot; HMG-HMG pair also tested with Mnase treatment; both purified
GST-tagged TCF7 = GST-tagged TCF7 (UniProt P36402); test: as above

## His-tagged full-length SOX9 (from UniProt P48436 1-509)
GST-tagged LEF1
  binding: binds
GST-tagged TCF7
  binding: binds
